Some of the results follow. Further columns of the screen follow, without active or inactive calls. Compounds called inactive in the main read-out are mostly missing here. The note in brackets gives the kind of curve behind each potency; many fits are weak.
Assay: qHTS Assay for Lipid Storage Modulators in Drosophila S3 Cells;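 for cell number change: cells counted by Cell Tracker Red CMTPX staining in the red channel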
Details: BODIPY lipid droplet fluorescence, 18-24 h; for cell number change: measured here: cell count max response, cells fed with added oleic acid
Summary of the method: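 Laser-scanning cytometry quantifies lipid droplet accumulation (500–530 nm total intensity; droplet/cell object ratio) in oleic acid-fed (400 uM added) Drosophila S3 cells treated with a concentration series. 20 uM Triacsin C defined 100% inhibition.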

[1] = measured here: lipid fluorescence (Fed channel) AC50, cells fed with added oleic acid
[2] = measured here: cell number channel AC50, cells fed with added oleic acid

Structure (SMILES) | cell number change [%] | AC50 [1] | AC50 [2]
CCOC(=O)c1cccc(NC(=O)Cn2c(CC(=O)N3CCCC3)nc3ccccc32)c1 | 4.03 | 6.51 µM [rising, single point] | –
CS(=O)(=O)N1CCC(C(=O)NCc2ccccc2)CC1 | -11.8 | 0.517 µM [rising, single point] | –
COc1cc(C(=O)OCC(=O)N(C)c2ccccc2)cc(OC)c1OC | -2.56 | – | –
O=C1NC2(CCCCC2)C(=O)N1CC(=O)N(Cc1ccccc1)c1ccccc1 | 35.6 | – | –
CCn1c2ccccc2c2nnc(SCc3ccccc3)nc21 | 5.52 | 1.64 µM [rising, full curve, poor fit] | –
COCCCNC(=O)c1c(N)n(-c2cccc(S(N)(=O)=O)c2)c2nc3ccccc3nc12 | 163 | – | 11.6 µM [rising, partial curve]
O=C(CN1C(=O)C2C3CCC(C3)C2C1=O)NCc1ccco1 (stereo not drawn) | -7.57 | 6.51 µM [falling, single point] | –
O=C1NN=COc2ccccc21 | -9.85 | 0.517 µM [falling, full curve] | –
COC(=O)c1ccccc1-c1ccc(C(c2c(C)[nH][nH]c2=O)c2c(C)[nH][nH]c2=O)o1 | -35.2 | 23.1 µM [falling, single point] | 18.4 µM [falling, single point]
CCN(CC)S(=O)(=O)c1ccc(N2CCOCC2)c(NC(=O)c2ccc3ccccc3c2)c1 | 5.29 | 1.46 µM [rising, partial curve, poor fit] | –
Cc1cc(S(=O)(=O)n2cnc3cc([N+](=O)[O-])ccc32)ccc1Cl | -4.93 | – | –
CCNC(=O)/C(=C\c1ccccc1)NC(=O)/C=C/c1ccccc1 | -33.3 | 1.64 µM [falling, full curve] | 0.92 µM [falling, full curve, poor fit]
Cc1cc(C)c(C#N)c(SCc2cn3c(C)cccc3n2)n1 | 103 | – | –
Cc1sc(C(C2C(=O)CC(C)(C)CC2=O)C2C(=O)CC(C)(C)CC2=O)cc1[N+](=O)[O-] | -49.2 | – | 29.1 µM [falling, single point]
NC(=O)C1CCN(C(=O)CCc2nc3sc4c(c3c(=O)[nH]2)CCCC4)CC1 | -100 | – | 3.66 µM [falling, partial curve]
CCOc1ccccc1C(=O)Nc1ccc2c(c1)C(=O)NC2=O | -3.52 | 1.3 µM [falling, full curve] | –
CCC(=O)N1C(=O)C2(Nc3ccccc3N2)c2ccccc21 | 13.5 | – | 0.58 µM [falling, single point]
O=C(Nc1ccc(Nc2ccccc2)cc1)N1CCOCC1 | – | 0.651 µM [falling, single point] | –
CC(=O)Oc1ccc(NC(=O)Cc2ccccc2)cc1 | -12.7 | – | –

Structure (SMILES) | cell number change [%] | AC50 [1] | AC50 [2]
Cc1cccc(CS(=O)(=O)c2cn(CC(=O)N3CCOCC3)c3ccccc23)c1 | 14.2 | – | 0.146 µM [rising, partial curve, poor fit]
COc1ccc(/C=C2\Sc3ccc(C(=O)NCCCN4CCCC4)cc3N(C)C2=O)cc1OC | 0.0824 | – | –
CCNc1nc2cccnc2s1 | 7.87 | 0.00461 µM [falling, full curve, poor fit] | 0.00461 µM [falling, full curve, poor fit]
Cc1ccc(S(=O)(=O)N2[C@@H](c3cccc(Cl)c3)C(C(=O)O)=CC[C@H]2c2ccc(Cl)c(Cl)c2)cc1 | -0.858 | 0.92 µM [rising, partial curve, poor fit] | 0.731 µM [rising, full curve, poor fit]
CC(C)N(CCNC(=O)c1ccc(OCC2CCCO2)cc1)C(C)C (stereo not drawn) | -14.3 | 6.51 µM [falling, single point] | –
O=C(CSc1nnc(-c2cccs2)n1Cc1ccco1)Nc1ccc2c(c1)OCO2 | -11.1 | 0.517 µM [rising, partial curve] | –
COc1ccccc1-n1cnnc1SCC(=O)NCc1cccs1 | 53.8 | – | 0.92 µM [rising, partial curve]
O=C(Nc1nc2ccc(Cl)cc2s1)c1ccco1 | 34.8 | 6.51 µM [falling, single point] | 29.1 µM [rising, single point]
OCC[C@@H]1C[C@H](O)[C@@H](O)[C@@]2(Cc3ccccc3CO2)O1 | 14.4 | – | –
COc1ccc(S(=O)(=O)NC2CCCCCC2)cc1C(N)=O | – | 2.59 µM [rising, single point] | –
O=C(NNC(=O)c1ccc([N+](=O)[O-])cc1)c1ccncc1 | -27.5 | 29.1 µM [falling, single point] | 4.61 µM [falling, full curve, poor fit]
COc1ccc(C2CC(C(F)(F)F)n3nc(C(=O)O)c(Cl)c3N2)cc1OC (stereo not drawn) | 7.94 | 0.651 µM [rising, partial curve, poor fit] | 0.731 µM [rising, partial curve, poor fit]
Cc1ccc(C(=O)COC(=O)CNC(=O)c2cccs2)cc1 | -44.8 | 0.058 µM [falling, full curve, poor fit] | 0.0517 µM [falling, partial curve, poor fit]
C[N+]1(C)CC[C@H](OC(=O)[C@@](O)(c2ccccc2)C2CCCC2)C1 | -31 | 0.103 µM [falling, full curve, poor fit] | 0.164 µM [falling, full curve, poor fit]
COC(=O)c1[nH]c2ccc(C)cc2c1NC(=O)CN1CCN(c2ccccc2)CC1 | -45.9 | – | 18.4 µM [falling, partial curve, poor fit]
O=C(NCc1ccco1)c1ccc(CS(=O)Cc2ccc(Cl)cc2)o1 (stereo not drawn) | – | 6.51 µM [falling, single point] | –
CC(C)N(Cc1ccccc1)CC(O)COc1ccc(S(=O)(=O)N2CCOCC2)cc1Cl (stereo not drawn) | -8.25 | 0.00461 µM [rising, full curve, poor fit] | –
CN1C(=O)CSc2ccc(NC(=O)NCc3ccc(F)cc3)cc21 | -10 | 0.00461 µM [falling, full curve, poor fit] | –

One compound at a time (already shown):
CC(C)N(Cc1ccccc1)CC(O)COc1ccc(S(=O)(=O)N2CCOCC2)cc1Cl (stereo not drawn) is entered as cell number change [%]: -8.25; AC50 [1]: 0.00461 µM [rising, full curve, poor fit]
O=C(NNC(=O)c1ccc([N+](=O)[O-])cc1)c1ccncc1 is entered as cell number change [%]: -27.5; AC50 [1]: 29.1 µM [falling, single point]; AC50 [2]: 4.61 µM [falling, full curve, poor fit]
COC(=O)c1[nH]c2ccc(C)cc2c1NC(=O)CN1CCN(c2ccccc2)CC1 is entered as cell number change [%]: -45.9; AC50 [2]: 18.4 µM [falling, partial curve, poor fit]

Reference: PubChem BioAssay AID2685 (National Center for Advancing Translational Sciences (NCATS), 2010)
